# Article doi:10.1101/2022.03.08.483512
# Results are given in words; binding and its absence hold for the method and conditions named. In cells and extracts the contact can be indirect. A yes stands for co-enrichment or nearness to the bait. Other partners may have been found.
# Legend:
# [1] = target: human GABAA receptor α1 subunit carrying the A322D variant (human); experiment: affinity purification with mass spectrometry
# [2] = target: human GABAA receptor α1 subunit, wild type (human); experiment: affinity purification with mass spectrometry
Binder,binding [1],binding [2]
"SerpinH1 (protein, UniProt P50454 19-418) AEVKKPAAAAAPGTAEKLSPKAATLAERSAGLAFSLYQAMAKDQAVENILVSPVVVASSLGLVSLGGKATTASQAKAVLSAEQLRDEEVHAGLGELLRSLSNSTARNVTWKLGSRLYGPSSVSFADDFVRSSKQHYNCEHSKINFRDKRSALQSINEWAAQTTDGKLPEVTKDVERTDGALLVNAMFFKPHWDEKFHHKMVDNRGFMVTRSYTVGVMMMHRTGLYNYYDDEKEKLQIVEMPLAHKLSSLIILMPHHVEPLERLEKLLTKEQLKIWMGKMQKKAVAISLPKGVVEVTHDLQKHLAGLGLTEAIDKNKADLSRMSGKKDLYLASVFHATAFELDTDGNPFDQDIYGREELRSPKLFYADHPFIFLVRDTQSGSLLFIGRLVRPKGDKMRDEL",binds,binds
"RPN1 (protein, UniProt P04843 24-607) ASSEAPPLINEDVKRTVDLSSHLAKVTAEVVLAHLGGGSTSRATSFLLALEPELEARLAHLGVQVKGEDEEENNLEVRETKIKGKSGRFFTVKLPVALDPGAKISVIVETVYTHVLHPYPTQITQSEKQFVVFEGNHYFYSPYPTKTQTMRVKLASRNVESYTKLGNPTRSEDLLDYGPFRDVPAYSQDTFKVHYENNSPFLTITSMTRVIEVSHWGNIAVEENVDLKHTGAVLKGPFSRYDYQRQPDSGISSIRSFKTILPAAAQDVYYRDEIGNVSTSHLLILDDSVEMEIRPRFPLFGGWKTHYIVGYNLPSYEYLYNLGDQYALKMRFVDHVFDEQVIDSLTVKIILPEGAKNIEIDSPYEISRAPDELHYTYLDTFGRPVIVAYKKNLVEQHIQDIVVHYTFNKVLMLQEPLLVVAAFYILFFTVIIYVRLDFSITKDPAAEARMKVACITEQVLTLVNKRIGLYRHFDETVNRYKQSRDISTLNSGKKSLETEHKALTSEIALLQSRLKTEGSDLCDRVSEMQKLDAQVKELVLKSAVEAERLVAGKLKKDTYIENEKLISGKRQELVTKIDHILDAL",binds,binds
"reticulocalbin 2 (protein, UniProt Q14257 23-317) GKAEELHYPLGERRSDYDREALLGVQEDVDEYVKLGHEEQQKRLQAIIKKIDLDSDGFLTESELSSWIQMSFKHYAMQEAKQQFVEYDKNSDDTVTWDEYNIQMYDRVIDFDENTALDDAEEESFRKLHLKDKKRFEKANQDSGPGLSLEEFIAFEHPEEVDYMTEFVIQEALEEHDKNGDGFVSLEEFLGDYRWDPTANEDPEWILVEKDRFVNDYDKDNDGRLDPQELLPWVVPNNQGIAQEEALHLIDEMDLNGDKKLSEEEILENPDLFLTSEATDYGRQLHDDYFYHDEL",binds,binds
